These are yes or no findings as the source states them, for the method shown. Binding seen in cells or lysates may run through a third protein. Some binding calls cover weakened binding; strength is not graded here.

The chains behind the UniProt entries cited, without tags or fusion partners. Where a name states a change or a piece, a line headed by the entry shows the natural chain unless it says otherwise.
UniProt P05556: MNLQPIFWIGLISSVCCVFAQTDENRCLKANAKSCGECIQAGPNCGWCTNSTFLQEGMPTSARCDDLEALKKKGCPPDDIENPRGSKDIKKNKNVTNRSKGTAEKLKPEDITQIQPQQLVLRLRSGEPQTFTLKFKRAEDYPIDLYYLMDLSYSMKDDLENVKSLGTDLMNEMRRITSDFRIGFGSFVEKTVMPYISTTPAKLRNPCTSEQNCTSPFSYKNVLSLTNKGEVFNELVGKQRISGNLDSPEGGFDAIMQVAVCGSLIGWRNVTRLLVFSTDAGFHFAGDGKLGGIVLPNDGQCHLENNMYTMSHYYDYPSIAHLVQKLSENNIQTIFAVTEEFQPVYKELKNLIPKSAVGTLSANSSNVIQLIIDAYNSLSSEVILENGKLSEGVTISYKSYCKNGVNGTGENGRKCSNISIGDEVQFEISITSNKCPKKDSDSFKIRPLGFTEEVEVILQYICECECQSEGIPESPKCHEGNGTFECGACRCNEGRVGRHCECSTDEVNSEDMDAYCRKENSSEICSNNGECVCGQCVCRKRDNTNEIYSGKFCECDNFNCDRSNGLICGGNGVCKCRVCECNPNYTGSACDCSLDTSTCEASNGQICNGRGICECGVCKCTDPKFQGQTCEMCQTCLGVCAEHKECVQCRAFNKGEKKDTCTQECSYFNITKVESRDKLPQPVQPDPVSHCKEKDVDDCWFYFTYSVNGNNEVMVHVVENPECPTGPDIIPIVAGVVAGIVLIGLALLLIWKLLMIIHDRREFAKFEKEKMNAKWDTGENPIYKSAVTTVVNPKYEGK

The assay concerns the target vascular endothelial growth factor receptor 2 (VEGFR2) (human (endogenous in HUVEC)) (UniProt P35968). Briefly: co-IP.

“integrin β1 (ITGB1) (from UniProt P05556 21-798) (receptor)”: the binding result is “binds”.

The record behind these values is publication doi:10.1101/2021.05.06.442985.
